{"sequences": {"note": "Protein sequences, listed by entry. Tags and fused reporters are not part of them. Lines headed by an entry give the natural chain unless they say otherwise; changes in a name come on top. Chains listed by the source or under a name are the forms on record and can include a tag or linker.", "UniProt P27708": "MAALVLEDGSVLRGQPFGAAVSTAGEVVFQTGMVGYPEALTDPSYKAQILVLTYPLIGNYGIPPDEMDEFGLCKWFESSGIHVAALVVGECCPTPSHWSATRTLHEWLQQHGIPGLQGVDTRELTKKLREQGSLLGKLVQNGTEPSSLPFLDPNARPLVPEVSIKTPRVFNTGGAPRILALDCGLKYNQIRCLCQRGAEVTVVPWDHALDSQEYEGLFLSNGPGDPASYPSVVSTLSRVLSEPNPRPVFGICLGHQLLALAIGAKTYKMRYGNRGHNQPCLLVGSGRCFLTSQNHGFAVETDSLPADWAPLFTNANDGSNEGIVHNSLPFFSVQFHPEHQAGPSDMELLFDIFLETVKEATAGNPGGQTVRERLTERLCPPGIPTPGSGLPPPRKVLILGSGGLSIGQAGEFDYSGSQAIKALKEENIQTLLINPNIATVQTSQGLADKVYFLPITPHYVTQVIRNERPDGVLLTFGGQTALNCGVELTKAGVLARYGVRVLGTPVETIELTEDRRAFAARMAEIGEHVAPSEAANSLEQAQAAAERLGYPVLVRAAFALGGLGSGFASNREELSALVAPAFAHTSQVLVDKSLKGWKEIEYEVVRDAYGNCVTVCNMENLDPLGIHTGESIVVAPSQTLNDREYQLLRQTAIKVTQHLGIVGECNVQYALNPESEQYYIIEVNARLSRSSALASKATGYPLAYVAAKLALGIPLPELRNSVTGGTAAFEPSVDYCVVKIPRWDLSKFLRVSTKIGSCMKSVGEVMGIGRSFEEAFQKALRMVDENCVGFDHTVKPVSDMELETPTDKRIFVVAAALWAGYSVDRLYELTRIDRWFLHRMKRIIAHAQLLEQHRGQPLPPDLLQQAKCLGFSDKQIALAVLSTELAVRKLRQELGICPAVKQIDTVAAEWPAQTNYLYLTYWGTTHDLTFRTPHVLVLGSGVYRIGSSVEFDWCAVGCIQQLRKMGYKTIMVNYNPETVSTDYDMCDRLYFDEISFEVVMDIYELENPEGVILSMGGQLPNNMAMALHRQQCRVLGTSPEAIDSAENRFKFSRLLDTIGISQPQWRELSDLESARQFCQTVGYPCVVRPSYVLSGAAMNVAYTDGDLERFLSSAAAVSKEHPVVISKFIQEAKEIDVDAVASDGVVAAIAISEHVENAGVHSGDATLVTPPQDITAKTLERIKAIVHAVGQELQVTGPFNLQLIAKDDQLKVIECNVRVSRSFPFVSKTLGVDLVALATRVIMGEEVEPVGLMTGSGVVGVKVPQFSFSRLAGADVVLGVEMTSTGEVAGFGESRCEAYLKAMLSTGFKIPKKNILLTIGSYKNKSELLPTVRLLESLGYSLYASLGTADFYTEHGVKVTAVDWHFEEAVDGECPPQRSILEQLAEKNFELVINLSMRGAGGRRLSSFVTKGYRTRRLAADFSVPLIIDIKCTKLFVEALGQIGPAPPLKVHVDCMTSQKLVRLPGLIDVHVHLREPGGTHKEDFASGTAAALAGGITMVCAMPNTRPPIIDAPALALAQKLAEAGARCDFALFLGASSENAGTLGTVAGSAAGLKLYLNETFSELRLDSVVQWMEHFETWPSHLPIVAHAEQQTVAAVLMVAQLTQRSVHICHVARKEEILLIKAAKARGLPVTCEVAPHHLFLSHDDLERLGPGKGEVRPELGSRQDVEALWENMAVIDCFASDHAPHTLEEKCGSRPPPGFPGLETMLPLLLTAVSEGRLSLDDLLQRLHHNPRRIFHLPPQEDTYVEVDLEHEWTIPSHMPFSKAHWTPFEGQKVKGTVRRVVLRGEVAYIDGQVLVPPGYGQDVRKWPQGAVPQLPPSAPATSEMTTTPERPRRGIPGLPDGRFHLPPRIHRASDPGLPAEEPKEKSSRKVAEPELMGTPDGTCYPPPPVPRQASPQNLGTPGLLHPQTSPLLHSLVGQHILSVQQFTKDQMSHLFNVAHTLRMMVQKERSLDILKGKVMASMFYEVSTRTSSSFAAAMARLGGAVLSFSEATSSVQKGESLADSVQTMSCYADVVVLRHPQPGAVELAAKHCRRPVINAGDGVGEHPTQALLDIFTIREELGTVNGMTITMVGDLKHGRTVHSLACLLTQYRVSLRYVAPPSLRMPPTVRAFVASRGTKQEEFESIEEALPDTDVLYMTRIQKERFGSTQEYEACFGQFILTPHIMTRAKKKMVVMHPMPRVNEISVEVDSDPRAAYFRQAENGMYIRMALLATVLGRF", "CAD Ser1859 to alanine (P27708, form named)": "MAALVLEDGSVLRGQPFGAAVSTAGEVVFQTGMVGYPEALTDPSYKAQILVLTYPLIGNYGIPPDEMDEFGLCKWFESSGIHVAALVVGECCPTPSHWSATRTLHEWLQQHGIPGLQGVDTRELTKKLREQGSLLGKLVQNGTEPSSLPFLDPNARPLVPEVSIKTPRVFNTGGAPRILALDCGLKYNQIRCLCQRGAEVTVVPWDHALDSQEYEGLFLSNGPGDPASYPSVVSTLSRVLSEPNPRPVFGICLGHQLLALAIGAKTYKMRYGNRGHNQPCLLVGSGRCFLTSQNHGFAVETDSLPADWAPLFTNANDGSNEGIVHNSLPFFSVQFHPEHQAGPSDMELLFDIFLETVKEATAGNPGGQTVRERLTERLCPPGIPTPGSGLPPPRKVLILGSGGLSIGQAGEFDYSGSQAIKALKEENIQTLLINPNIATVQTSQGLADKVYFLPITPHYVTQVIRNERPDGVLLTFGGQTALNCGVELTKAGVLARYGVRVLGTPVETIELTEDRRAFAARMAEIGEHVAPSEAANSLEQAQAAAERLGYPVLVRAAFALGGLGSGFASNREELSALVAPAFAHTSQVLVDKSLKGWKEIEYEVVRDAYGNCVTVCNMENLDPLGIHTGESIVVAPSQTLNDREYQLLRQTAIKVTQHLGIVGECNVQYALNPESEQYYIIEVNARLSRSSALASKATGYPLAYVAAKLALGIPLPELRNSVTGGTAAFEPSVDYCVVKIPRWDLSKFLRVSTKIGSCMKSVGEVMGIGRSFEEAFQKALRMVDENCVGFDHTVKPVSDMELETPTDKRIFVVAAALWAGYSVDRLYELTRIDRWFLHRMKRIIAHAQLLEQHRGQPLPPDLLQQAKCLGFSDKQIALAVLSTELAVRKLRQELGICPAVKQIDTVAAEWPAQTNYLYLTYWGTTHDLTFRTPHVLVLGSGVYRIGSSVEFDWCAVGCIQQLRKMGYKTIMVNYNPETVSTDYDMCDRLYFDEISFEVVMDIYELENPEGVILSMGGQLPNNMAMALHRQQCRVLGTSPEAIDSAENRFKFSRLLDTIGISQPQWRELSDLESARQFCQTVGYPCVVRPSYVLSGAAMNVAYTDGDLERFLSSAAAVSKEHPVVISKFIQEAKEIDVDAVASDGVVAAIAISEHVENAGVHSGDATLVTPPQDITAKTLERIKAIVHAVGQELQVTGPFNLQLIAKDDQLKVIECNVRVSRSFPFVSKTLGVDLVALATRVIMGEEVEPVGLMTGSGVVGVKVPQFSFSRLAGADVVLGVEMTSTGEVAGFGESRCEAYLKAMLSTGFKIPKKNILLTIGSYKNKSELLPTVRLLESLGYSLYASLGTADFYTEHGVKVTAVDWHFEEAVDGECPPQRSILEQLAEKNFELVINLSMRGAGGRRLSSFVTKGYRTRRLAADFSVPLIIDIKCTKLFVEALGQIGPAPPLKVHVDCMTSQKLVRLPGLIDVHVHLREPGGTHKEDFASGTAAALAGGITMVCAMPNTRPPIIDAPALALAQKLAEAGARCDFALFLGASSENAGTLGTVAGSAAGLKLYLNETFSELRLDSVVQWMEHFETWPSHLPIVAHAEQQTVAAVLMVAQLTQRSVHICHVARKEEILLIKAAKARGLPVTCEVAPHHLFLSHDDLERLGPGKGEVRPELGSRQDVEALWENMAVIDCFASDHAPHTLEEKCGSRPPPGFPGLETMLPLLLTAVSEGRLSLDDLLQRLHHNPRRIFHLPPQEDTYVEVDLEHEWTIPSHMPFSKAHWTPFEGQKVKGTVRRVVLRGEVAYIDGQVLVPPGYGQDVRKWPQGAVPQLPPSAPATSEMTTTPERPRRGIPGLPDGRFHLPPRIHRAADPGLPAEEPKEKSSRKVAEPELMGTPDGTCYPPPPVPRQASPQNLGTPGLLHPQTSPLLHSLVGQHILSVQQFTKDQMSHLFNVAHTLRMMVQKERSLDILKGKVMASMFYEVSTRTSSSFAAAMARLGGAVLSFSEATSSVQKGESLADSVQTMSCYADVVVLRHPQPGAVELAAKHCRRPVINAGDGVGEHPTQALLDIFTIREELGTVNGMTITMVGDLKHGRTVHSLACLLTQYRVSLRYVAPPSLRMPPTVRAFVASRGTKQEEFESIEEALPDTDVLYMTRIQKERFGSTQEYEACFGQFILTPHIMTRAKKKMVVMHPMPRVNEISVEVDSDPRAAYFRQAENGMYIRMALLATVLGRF", "UniProt P23443": "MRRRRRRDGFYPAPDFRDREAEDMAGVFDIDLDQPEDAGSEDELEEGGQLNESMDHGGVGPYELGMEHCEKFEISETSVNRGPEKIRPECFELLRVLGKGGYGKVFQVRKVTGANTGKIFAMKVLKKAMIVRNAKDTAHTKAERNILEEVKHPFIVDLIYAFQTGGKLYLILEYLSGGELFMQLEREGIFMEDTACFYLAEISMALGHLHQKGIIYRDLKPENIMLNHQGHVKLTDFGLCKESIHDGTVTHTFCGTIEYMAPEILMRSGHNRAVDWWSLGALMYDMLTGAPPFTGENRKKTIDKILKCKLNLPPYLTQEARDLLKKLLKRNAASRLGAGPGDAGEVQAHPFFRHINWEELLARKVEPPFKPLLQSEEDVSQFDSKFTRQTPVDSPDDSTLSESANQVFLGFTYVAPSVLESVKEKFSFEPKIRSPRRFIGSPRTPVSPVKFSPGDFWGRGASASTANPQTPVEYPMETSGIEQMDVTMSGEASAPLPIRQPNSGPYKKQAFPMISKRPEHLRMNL", "UniProt P23258": "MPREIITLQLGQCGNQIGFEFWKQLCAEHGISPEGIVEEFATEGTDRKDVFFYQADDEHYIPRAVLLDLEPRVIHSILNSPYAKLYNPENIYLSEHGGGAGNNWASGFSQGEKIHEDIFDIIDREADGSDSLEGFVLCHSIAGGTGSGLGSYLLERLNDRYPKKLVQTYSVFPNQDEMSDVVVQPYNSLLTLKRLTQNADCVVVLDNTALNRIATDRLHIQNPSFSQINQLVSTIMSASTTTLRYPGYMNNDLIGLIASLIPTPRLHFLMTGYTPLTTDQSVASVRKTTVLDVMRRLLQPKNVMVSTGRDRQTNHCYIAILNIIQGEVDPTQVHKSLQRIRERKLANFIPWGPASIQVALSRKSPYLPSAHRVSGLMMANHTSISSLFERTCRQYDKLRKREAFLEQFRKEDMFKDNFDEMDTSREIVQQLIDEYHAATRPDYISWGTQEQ", "UniProt P0DMV8": "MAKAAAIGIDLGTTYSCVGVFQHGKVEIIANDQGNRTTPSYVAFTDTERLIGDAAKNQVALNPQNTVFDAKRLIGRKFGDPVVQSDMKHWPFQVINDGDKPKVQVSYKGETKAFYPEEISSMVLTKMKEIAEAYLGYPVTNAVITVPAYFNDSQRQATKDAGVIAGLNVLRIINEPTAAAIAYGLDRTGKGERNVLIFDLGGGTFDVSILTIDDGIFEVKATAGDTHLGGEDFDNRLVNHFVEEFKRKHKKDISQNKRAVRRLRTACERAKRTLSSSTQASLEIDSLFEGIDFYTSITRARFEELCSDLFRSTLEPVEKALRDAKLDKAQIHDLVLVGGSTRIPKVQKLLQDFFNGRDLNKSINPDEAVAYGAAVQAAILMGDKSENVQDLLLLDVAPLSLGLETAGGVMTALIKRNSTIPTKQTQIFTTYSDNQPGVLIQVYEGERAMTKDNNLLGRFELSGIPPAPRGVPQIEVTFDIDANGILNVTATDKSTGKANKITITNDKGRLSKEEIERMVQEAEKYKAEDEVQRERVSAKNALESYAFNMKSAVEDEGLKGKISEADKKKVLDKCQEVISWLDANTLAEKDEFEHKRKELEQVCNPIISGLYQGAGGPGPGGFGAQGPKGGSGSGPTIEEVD"}, "source": "paper PMC4511861", "key": {"[1]": {"biological_target": "T1, N-terminal FLAG-WDR73 wild-type fusion protein (human) (UniProt Q6P4I2)", "T1 sequence": "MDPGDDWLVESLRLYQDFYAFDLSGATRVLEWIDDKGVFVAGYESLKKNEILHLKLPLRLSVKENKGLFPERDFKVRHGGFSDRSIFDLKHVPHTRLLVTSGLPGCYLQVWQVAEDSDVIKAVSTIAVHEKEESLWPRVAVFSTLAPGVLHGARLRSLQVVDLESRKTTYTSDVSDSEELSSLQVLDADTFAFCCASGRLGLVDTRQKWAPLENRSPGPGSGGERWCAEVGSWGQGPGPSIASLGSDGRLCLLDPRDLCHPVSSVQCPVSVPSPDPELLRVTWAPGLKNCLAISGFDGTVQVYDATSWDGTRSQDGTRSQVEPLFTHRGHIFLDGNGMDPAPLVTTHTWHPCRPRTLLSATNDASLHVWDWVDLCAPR", "test": "co-IP; FLAG-WDR73 constructs overexpressed in HEK-293T; clarified lysate on anti-FLAG M2 affinity gel 2 h at 4°C, 3-4 washes of 15 min with 2.5-5% Tween-20, elution with 3x FLAG peptide; endogenous partners detected by immunoblot"}, "[2]": {"biological_target": "T1, N-terminal FLAG-WDR73 wild-type fusion protein (human)", "test": "co-IP; FLAG-WDR73 and recombinant CAD construct co-overexpressed in HEK-293T; anti-FLAG M2 affinity gel, elution with 3x FLAG peptide, immunoblot"}, "[3]": {"biological_target": "T2, N-terminal FLAG-WDR73 wild-type fusion protein (human), Q6P4I2", "T2 chain": "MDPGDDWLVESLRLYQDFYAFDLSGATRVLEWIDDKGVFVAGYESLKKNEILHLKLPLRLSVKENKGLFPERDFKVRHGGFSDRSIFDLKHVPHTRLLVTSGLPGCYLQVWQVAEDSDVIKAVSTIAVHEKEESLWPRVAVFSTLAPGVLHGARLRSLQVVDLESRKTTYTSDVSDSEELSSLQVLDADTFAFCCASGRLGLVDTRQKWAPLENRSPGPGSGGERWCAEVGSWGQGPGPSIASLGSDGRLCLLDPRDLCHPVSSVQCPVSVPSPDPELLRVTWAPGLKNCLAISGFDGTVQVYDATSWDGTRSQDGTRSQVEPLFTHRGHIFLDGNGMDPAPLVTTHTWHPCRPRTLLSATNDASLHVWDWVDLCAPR", "test": "co-IP; FLAG-WDR73 constructs overexpressed in HEK-293T; clarified lysate on anti-FLAG M2 affinity gel 2 h at 4°C, 3-4 washes of 15 min with 2.5-5% Tween-20, elution with 3x FLAG peptide; endogenous partners detected by immunoblot", "conditions": "remark: other sources report otherwise"}}, "note": "No constants are given. Whether binding was seen depends on the method and setting. Binding seen in cells or lysates may run through a third protein. Some binding calls cover weakened binding; strength is not graded here. Tags and fused reporters may be left off the sequences shown."}
{"molecule": "phospho-Ser1859 CAD, endogenous (from UniProt P27708 1-2225) (enzyme)", "values": [{"measurement": "binding", "setting": "[1]", "value": "binds"}]}
{"molecule": "p70 S6 kinase (RPS6KB1) (from UniProt P23443 1-525) (enzyme)", "values": [{"measurement": "binding", "setting": "[1]", "value": "binds"}]}
{"molecule": "CAD Ser1859 to alanine (from UniProt P27708 1-2225) (enzyme)", "values": [{"measurement": "binding", "setting": "[2]", "value": "binds"}]}
{"molecule": "CAD (carbamoyl-phosphate synthetase 2, aspartate transcarbamylase, and dihydroorotase), endogenous (from UniProt P27708 1-2225) (enzyme)", "values": [{"measurement": "binding", "setting": "[1]", "value": "binds"}]}
{"molecule": "heat shock protein HSP90 alpha isoform 2 (HSP-90) (from UniProt P07900 1-732)", "values": [{"measurement": "binding", "setting": "[1]", "value": "binds"}]}
{"molecule": "γ-tubulin (TUBG1) (from UniProt P23258 1-451)", "values": [{"measurement": "binding", "setting": "[1]", "value": "binds"}]}
{"molecule": "recombinant C-terminal V5 CAD fusion protein (from UniProt P27708 1-2225) (enzyme)", "values": [{"measurement": "binding", "setting": "[2]", "value": "binds"}]}
{"molecule": "heat shock 70-kDa protein 1A/1B (HSP-70) (from UniProt P0DMV8 1-641)", "values": [{"measurement": "binding", "setting": "[1]", "value": "binds"}]}
{"molecule": "β-tubulin 4B (TUBB4B), P68371 1-445 (protein) MREIVHLQAGQCGNQIGAKFWEVISDEHGIDPTGTYHGDSDLQLERINVYYNEATGGKYVPRAVLVDLEPGTMDSVRSGPFGQIFRPDNFVFGQSGAGNNWAKGHYTEGAELVDSVLDVVRKEAESCDCLQGFQLTHSLGGGTGSGMGTLLISKIREEYPDRIMNTFSVVPSPKVSDTVVEPYNATLSVHQLVENTDETYCIDNEALYDICFRTLKLTTPTYGDLNHLVSATMSGVTTCLRFPGQLNADLRKLAVNMVPFPRLHFFMPGFAPLTSRGSQQYRALTVPELTQQMFDAKNMMAACDPRHGRYLTVAAVFRGRMSMKEVDEQMLNVQNKNSSYFVEWIPNNVKTAVCDIPPRGLKMSATFIGNSTAIQELFKRISEQFTAMFRRKAFLHWYTGEGMDEMEFTEAESNMNDLVSEYQQYQDATAEEEGEFEEEAEEEVA", "values": [{"measurement": "binding", "setting": "[3]", "value": "binds"}]}
